Results taken from patent EP1493438A1, “Vanilloid receptor (VR) inhibitors for treatment of Human Immunodeficiency Virus (HIV)-mediated pain states” (Bayer HealthCare AG, priority 2003, dated 2005).

System: rat DRG neurons
Experiment: Inhibition of gp120-mediated CGRP-release from rat DRG neurons (Method B)
Conditions: DRG neuron

Molecule C[S+]([O-])c1ccc(-c2nc(-c3ccncc3)c(-c3ccc(F)cc3)[nH]2)cc1 (stereo not shown) [SB203580] has an IC50 of 2.89 nM.
